Reference: patent publication US20240060072A1, “METHOD AND COMPOSITION FOR TREATING NON-ALCOHOLIC FATTY LIVER DISEASE, ASSOCIATED CONDITIONS AND SYMPTOMS” (THE HONG KONG POLYTECHNIC UNIVERSITY, priority 2022, published 2024)
Some results were stated once for a whole list of compounds, not compound by compound. For at least one compound, name, drawing or mass did not settle the structure.

System: HFD-fed mice
Assay: CCl4 or STZ treatment of HFD-fed mice: hepatic mRNA by RT-qPCR
Format: in vivo, mouse
Conditions: compared to untreated HFD-fed mice

## ClC(Cl)(Cl)Cl [CCl4]
  increase of expression of IL-1 mRNA in livers: 4 to 5 fold
